Primary screen of a compound library

Chains of the proteins cited; added tags and fusions are not shown.
UniProt E9BF75, entry or part of it: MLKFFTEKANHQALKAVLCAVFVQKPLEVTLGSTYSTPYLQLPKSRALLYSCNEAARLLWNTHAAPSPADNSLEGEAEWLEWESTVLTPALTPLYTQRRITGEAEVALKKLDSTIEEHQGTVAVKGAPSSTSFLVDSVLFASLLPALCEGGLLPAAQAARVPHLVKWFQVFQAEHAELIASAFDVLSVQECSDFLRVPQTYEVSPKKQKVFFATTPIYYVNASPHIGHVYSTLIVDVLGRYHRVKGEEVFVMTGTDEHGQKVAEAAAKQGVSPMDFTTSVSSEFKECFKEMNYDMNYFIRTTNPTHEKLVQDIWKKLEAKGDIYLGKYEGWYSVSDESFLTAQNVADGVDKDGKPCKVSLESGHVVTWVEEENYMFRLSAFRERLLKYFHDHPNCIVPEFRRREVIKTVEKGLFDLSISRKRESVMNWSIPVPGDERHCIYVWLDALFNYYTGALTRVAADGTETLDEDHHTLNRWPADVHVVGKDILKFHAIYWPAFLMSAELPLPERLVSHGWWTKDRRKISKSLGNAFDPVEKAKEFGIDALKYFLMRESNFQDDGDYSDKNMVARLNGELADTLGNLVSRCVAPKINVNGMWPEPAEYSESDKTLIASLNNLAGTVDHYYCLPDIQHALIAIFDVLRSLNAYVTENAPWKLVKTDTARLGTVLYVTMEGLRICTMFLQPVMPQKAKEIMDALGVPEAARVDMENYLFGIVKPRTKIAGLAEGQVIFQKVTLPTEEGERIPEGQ

Source: ChEMBL document CHEMBL3988442, “University of Dundee, Small-Polar-MMV Screening Library” (2021).

Mtb heat-shock: 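Assay on Mycobacterium tuberculosis, filed only as a heat shock assay from Cornell; the read-out is not stated. The concentration is filed as 10 mM, unlikely as a test dose, so the dose is not known. Higher reads as stronger inhibition (inferred: compounds with an IC50 in retests scored well above the rest). About 69,000 compounds were tested under these conditions; 1.4% (about 930) showed 50% or more at least once.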
Mtb growth Cornell: 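Whole-cell assay for inhibitors of Mycobacterium tuberculosis growth, labelled Cornell in the record; the read-out is not stated. The concentration is filed as 10 mM, unlikely as a test dose, so the dose is not known. The record gives no direction; compounds strong in two other growth screens of this library score well above the rest, so higher reads as stronger inhibition. Size under these conditions: about 53,000 compounds, about 900 of them at 50% or above in at least one test.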
LdMetRS: 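Primary screen of methionyl-tRNA synthetase; the read-out is not stated. Target: Methionyl-tRNA synthetase (putative), Leishmania donovani (UniProt E9BF75). The test concentration is not given. The values are filed as inhibition. About 68,000 compounds were tested under these conditions; 0.035% (about 24) showed 50% or more at least once.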

Results are percentages, as filed. How 0% and 100% were set is not recorded. Most values in the screen are low, and negative values occur. The compounds are a random part of those screened. A dash means the value is not listed here; it may have been measured.

structure	Mtb heat-shock	Mtb growth Cornell	LdMetRS
Cc1cccc(-c2nc(CN3CCn4c(nnc4C4CC4)C3)no2)c1	-1.067%	14.54%	11.87%
CCCSc1ncc(CN(C)CCN2CCCCC2)cn1.O=C(O)CC(O)(CC(=O)O)C(=O)O	-18.85%	5.192%	-
CCc1nccn1C1CCCN(C(=O)c2ccc3[nH]cnc3c2)C1 (centres undefined)	11.65%	8.912%	18.31%
O=C(N[C@H]1CN[C@H]2CCCO[C@H]21)c1ccno1	-	-	15.5%
Cn1cc(C(=O)N[C@@H]2CN(Cc3cccnc3)[C@@H]3CCCO[C@@H]32)cn1	-	-	15.56%
Cc1[nH]c(=O)[nH]c(=O)c1CN1CCCC(CCc2ccccc2)C1 (centres undefined)	-7.762%	-	14.86%
CCc1nc(C2CCCN2CC(=O)Nc2c(C)n[nH]c2C)no1 (centres undefined)	-1.325%	9.043%	7.692%
Cc1ccc(OC2(C(=O)N(C)Cc3ccoc3)CCNCC2)cc1	10.57%	31.13%	10.13%
CN1CCN([C@@H]2CCN(Cc3cccc(-n4cccn4)c3)C[C@H]2O)CC1	-9.181%	11.1%	3.472%
CNC(=O)c1cc2c(nc1NCC1CC1)CCN(c1ncccn1)CC2	-12.8%	-4.318%	6.052%
CCc1ncc(C(=O)N(CC)CCOC)cn1	0.7041%	-	14.4%
O=C(c1cc(-c2ccn(CC3CC3)n2)n2ccccc12)N1CCOCC1	104.4%	96.99%	19.3%
[H][C@]12C[C@H](C(=O)NCC3CC3)N(C)[C@@]1([H])CN(c1ncccn1)C2	5.613%	-21.87%	-
O=S(=O)(NCCNc1ccc(-n2cccc2)nn1)c1cccs1	103.8%	107.8%	9.353%
Cc1ccc2nc(C(=O)N(C)[C@@H]3CC[C@@H](N4CCCC4)[C@@H]3O)cn2c1	-12.36%	7.423%	16.82%
Cc1cccc(OC2CCN(c3ncc(C#N)cc3Cl)CC2)n1	1.343%	7.017%	7.023%
Cl.Cl.O=C(NC[C@H]1OC[C@@H](NC2CCNCC2)[C@@H]1O)C1CCCC1	-18.18%	-29.38%	-
[H][C@@]12CCN(Cc3ccc(F)cc3)C[C@]1([H])OCCN(c1cccnc1)C2=O	-23.5%	28.07%	-
CCc1cnc(N2CCC3(CCN(Cc4cccc(C)c4)C3=O)C2)nc1 (centres undefined)	-25.62%	11.78%	7.843%
COc1ccc2c(c1)nc1n2[C@@H](CN(C2CCC2)C2CCC2)COC1	-33.08%	-	4.396%
Cl.O=C(NC1CCCC1)c1cc(C2CCCNC2)n[nH]1 (centres undefined)	2.974%	-8.049%	-
CC(NC(=O)c1cc(C(C)C)[nH]n1)C(=O)Nc1ccccc1 (centres undefined)	4.461%	-	16.76%
CC(C)c1nnc2n1CC(CNCc1ccc3c(c1)OCCO3)CC2 (centres undefined)	-6.541%	7.789%	20.6%
CC(=O)N1CCC2(CC1)CNc1c(F)cccc12	-	-	7.65%
CN(Cc1cc(=O)c(O)co1)C1CCCN(c2ccccc2)C1 (centres undefined)	35.83%	17.6%	6.969%
CC(=O)Nc1nc(C(=O)N2CCCC2Cn2cccn2)cs1 (centres undefined)	-4.37%	-	11.05%
CC(C)(C)CN1CC[C@H](c2nnc(Cc3c[nH]c4ccccc34)o2)C1	-10.65%	-14.57%	2.256%
Cc1ccc(C)c(NC(=O)c2coc(C)n2)c1	9.2%	3.844%	-1.681%
Cn1nc(CO)c2c1CCN(c1ncnc3c1CCNCC3)C2	9.498%	12.27%	2.687%
CN1CCOC(c2cncc(CCC(N)=O)n2)C1 (centres undefined)	15.95%	-8.297%	17.85%
[H][C@@]12CS(=O)(=O)C[C@]1([H])N(C(=O)c1ccc3c(c1)OCC(=O)N3)CCN2CC	25.28%	-64.23%	-
CN(C)CCOC1CC2(CCN(c3cnccn3)CC2)c2ccccc21 (centres undefined)	-	-	18.12%
O=C(O)C(F)(F)F.O=C(c1cnoc1)N1CCC[C@]2(C[C@H](Oc3ncccc3F)CO2)C1	6.706%	-1.517%	-
Cc1ccsc1-c1nccn1C1CC(=O)N(C(C)C)C1 (centres undefined)	12.63%	-38.03%	5.115%
CN(Cc1cccc(C(N)=O)c1)c1ncc(C#N)cc1Cl	5.196%	-	8.333%
CCN1CC2(CC1=O)CN(C(=O)c1cccs1)CCN(C(=O)N(C)C)C2 (centres undefined)	7.113%	18.88%	11.25%
Cc1ccccc1CN(C)C(=O)c1ccoc1	-14.79%	-10.55%	3.194%
COCC1CN(c2ccc3c(Cl)ccnc3c2F)CCO1 (centres undefined)	-15.08%	0.3197%	8.803%
CN(CCC(F)(F)F)C(=O)C1CCCN1C(=O)OC(C)(C)C (centres undefined)	5.487%	-21.44%	7.389%
CC(=O)Nc1nc(C2CCN(C(=O)C3CCC3)CC2)cs1	8.34%	16.4%	5.085%
CCN(C(=O)CNc1cc(C)c(F)cc1C(N)=O)C1CC1	-3.127%	-10.11%	15.86%
Cc1nc(CN2CCN(CC3CCOC3)Cc3cccnc32)cs1 (centres undefined)	-	-	9.22%
Cc1cccc(C)c1NC(=O)CN(C)C(C)c1nc(C(C)(C)C)no1 (centres undefined)	-34.76%	13.01%	10.18%
CN(Cc1noc(C2CC2)n1)C1CCN(CCc2cnn(C)c2)C1 (centres undefined)	-5.5%	-7.393%	3.757%
O=C(O)C(F)(F)F.O=C(O)C(F)(F)F.O=C(O)C(F)(F)F.[H][C@@]12COC[C@]1(COCc1ccncc1)CN(Cc1ccncc1)C2	-24.05%	-43.25%	-
Cc1ccc(OCC2CCCN(C(=O)Cn3ccccc3=O)C2)cc1 (centres undefined)	-2.75%	-19.69%	9.148%
COCCN(CCN(C)C)C(=O)NC1CCc2ccccc2C1 (centres undefined)	-8.822%	39.45%	15.81%
COCC(=O)NC[C@H]1CC[C@H](c2nnc(-c3ccncc3)o2)CC1	-43.76%	-13.64%	12.03%
Cc1ccc(N2CCCC(NCc3nc(C)c(C)o3)C2)nn1 (centres undefined)	8.473%	-	18.75%
Cc1cnn(CC2CCCN2CC(=O)NC2CCOCC2)c1 (centres undefined)	-0.7823%	-20.28%	14.04%
COCCN1CCN(Cc2nnc(-c3occc3C)o2)CC1	-18.02%	-2.871%	18.51%
O=C(CCn1ccnc1)N1CC[C@@H](c2ccc3ccccc3c2)[C@H](O)C1	-9.939%	2.97%	0.6849%
Cc1cc(F)ccc1CNCc1cccc(C(=O)N2CCCC2)c1	-5.36%	-	13.11%
c1cc(CNCc2ccnc(N3CCOCC3)c2)c2c(c1)OCO2	-	-	10.86%
[H][C@@]12CN(C)C[C@]1(C(=O)N(C)C)CCC21CCN(C(=O)NC(C)C)CC1	-2.895%	-4.745%	-
CCC(C)NS(=O)(=O)Cc1cccc(NC(=O)C(C)C)c1 (centres undefined)	-6.342%	-	14.49%
CCS(=O)(=O)CCNC(=O)NC(C)c1cc(C)sc1C (centres undefined)	1.303%	4.819%	16.06%
COc1cc(N2C[C@@H]3COC[C@]3(COc3cccnc3)C2)ncn1	-	-	8.418%
Cc1cc(C)c(CCNC(=O)NCCCC(N)=O)c(C)c1	2.364%	-	11.98%
CN1CC2(CCN(C(=O)c3ccc4c(=O)n(C)cnc4c3)C2)OC1=O (centres undefined)	-6.791%	-27.56%	2.793%
CC(C)N1CCC(c2cccc(C(=O)N(C)C)n2)CC1	5.513%	-21.22%	2.625%
O=C1NCC2(CCCN(c3ncnc4c3CCC4)CC2)O1 (centres undefined)	-33.71%	11.26%	18.62%
CNC(=O)C1CCCN(c2nc3c(-c4ccccc4)csc3c(=O)[nH]2)C1 (centres undefined)	21.22%	1.773%	7.194%
Cc1cccc(OC2CCN(S(=O)(=O)Cc3cccc(F)c3)CC2)n1	-0.3445%	-6.925%	3.727%
Cc1ccc(C(=O)N2CC3(CCCCC3)c3cc(C(=O)O)ccc32)cn1	-	-	11.85%
CSc1ccc(NS(=O)(=O)c2cnn(C)c2)cn1	13.78%	17.6%	14.5%
[H][C@@]12CCN(Cc3cc(C)on3)C[C@@]1([H])O[C@@H](c1nc(C)cs1)C2	21.47%	-4.149%	-
CCc1nc(C)c(C(=O)NCCNc2cnccn2)s1	-2.665%	17.54%	7.874%
CC(C)N1CCC(CNC(=O)CCc2cc(F)ccc2F)C1 (centres undefined)	10.86%	-	11.34%
CCN(CC(=O)NC(C)C)S(=O)(=O)N1CCCCC1C (centres undefined)	5.864%	-35.84%	16.1%
Cc1cc(CNC2(c3ccccc3F)CC2)no1	-7.39%	-8.221%	10.08%
O=C(NCCOC1CCCC1)c1ccc(-c2ccco2)[nH]c1=O	-20.2%	-	19.94%
CCOc1cc(F)ccc1NC(=O)N(C(C)CS(C)(=O)=O)C1CC1 (centres undefined)	-0.367%	1.04%	12.01%
CCCC1c2cccn2CCN1C(=O)c1cc(CC)no1 (centres undefined)	-4.224%	-	6.824%